# Reference: US11393988B2, “Metal complexes” (Merck Patent GmbH, priority 2014, dated 2022)
# How the values were obtained:
# [1] = Solution-processed OLEDs from soluble functional materials; details: solution-processed OLED
# [2] = Vacuum-processed OLEDs with the complexes as phosphorescent emitter (efficiency, voltage, colour, lifetime); details: for LT80 (h) 1000 cd/m^2: orange-red, yellow and green OLEDs, time to 80% of initial luminous density 1000 cd/m^2; for Voltage (V) 1000 cd/m^2 / EQE (%) 1000 cd/m^2: vacuum-processed OLED, at 1000 cd/m^2; for EQE (%) 1000 cd/m^2: complex as emitter in EML (structure per Table 1)
# [3] = device Type 1, initial luminous density 1000 cd/m^2
# [4] = device Type 2, initial luminous density 1000 cd/m^2
SMILES,"EQE (%) 1000 cd/m^2 ([1]; device Type 1, at 1000 cd/m^2) [%]","Voltage (V) 1000 cd/m^2 ([1]; device Type 1, at 1000 cd/m^2) [V]",also measured
CC1(C)CCC(C)(C)c2c[c]3c(cc21)-c1cc2c(c[n+]1[Ir-3]314([c]3cc5c(cc3-c3cc6c(c[n+]31)C1CCC6C1)C(C)(C)CCC5(C)C)[c]1cc3c(cc1-c1cc5c(c[n+]14)C1CCC5C1)C(C)(C)CCC3(C)C)C1CCC2C1 (racemic) [Ir(LH5)3],22.7,4.7,"LT50 (h) 1000 cd/m^2 [1, 3]: 220000 h"
CC1(C)CCC(C)(C)c2cc(-c3ccnc(-c4cc5c(c[c]4[Ir]([c]4ccccc4-c4ccccn4)[c]4ccccc4-c4ccccn4)C(C)(C)CCC5(C)C)c3)ccc21 [Ir513],22.4,4.2,"LT50 (h) 1000 cd/m^2 [1, 3]: 250000 h"
CC1(C)CCC(C)(C)c2c[c]([Ir]([c]3ccccc3-c3ccccn3)[c]3ccccc3-c3ccccn3)c(-c3cc4c(cn3)C(C)(C)CC4(C)C)cc21 [Ir515],22.1,4.6,–
CC1(C)CCC(C)(C)c2cc3nc(-c4cccc[c]4[Ir]([c]4ccccc4-c4ccccn4)[c]4ccccc4-c4ccccn4)c(-c4ccccc4)nc3cc21 [Ir518],17.1,3.7,–
CC1(C)CCC(C)(C)c2cc3cc(-c4cc5c(c[c]4[Ir]([c]4ccccc4-c4ccccn4)[c]4ccccc4-c4ccccn4)C(C)(C)CC5(C)C)ncc3cc21 [Ir525],–,–,"EQE (%) 1000 cd/m^2 ([1]; device Type 2, at 1000 cd/m^2): 19.8%; Voltage (V) 1000 cd/m^2 ([1]; device Type 2, at 1000 cd/m^2): 3.8 V"
CC1(C)CCC(C)(C)c2cc(-c3cc4oc5ccccc5c4c[c]3[Ir]([c]3ccccc3-c3ccccn3)[c]3ccccc3-c3ccccn3)ncc21 [Ir528],21.5,4.7,–
Cc1cc(-c2cc3c(c[c]2[Ir]([c]2ccccc2-c2ccccn2)[c]2cc4c(cc2-c2cc(C)c(-c5ccccc5)cn2)C(C)(C)CCC4(C)C)C(C)(C)CCC3(C)C)ncc1-c1ccccc1 [Ir540],22.2,4.6,–
Cc1cc(-c2cc3c(c[c]2[Ir]([c]2ccccc2-c2ccccn2)[c]2cc4c(cc2-c2cc(C)c(-c5ccc6c(c5)C(C)(C)CCC6(C)C)cn2)C(C)(C)CCC4(C)C)C(C)(C)CCC3(C)C)ncc1-c1ccc2c(c1)C(C)(C)CCC2(C)C [Ir542],22.5,4.6,–
Cn1c(-c2cccc[c]2[Ir]([c]2ccc(C#N)cc2-c2ccccn2)[c]2ccccc2-c2nc3cc4c(cc3n2C)C(C)(C)CCC4(C)C)nc2cc3c(cc21)C(C)(C)CCC3(C)C [Ir546],20.5,4.5,–
CC1(C)CCC(C)(C)c2cc3c(-c4ccc(-c5ccccc5)c[c]4[Ir]([c]4ccccc4-c4cc5ccccc5cn4)[c]4cc(-c5ccccc5)ccc4-c4nccc5cc6c(cc45)C(C)(C)CCC6(C)C)nccc3cc21 [Ir549],–,–,"EQE (%) 1000 cd/m^2 ([1]; device Type 2, at 1000 cd/m^2): 19.5%; Voltage (V) 1000 cd/m^2 ([1]; device Type 2, at 1000 cd/m^2): 3.8 V"
CC(C)(C)c1c[c]([Ir]([c]2cc(C(C)(C)C)ncc2-c2nccc3cc4c(cc23)C(C)(C)CCC4(C)C)[c]2cccc3ccc4cccnc4c23)c(-c2nccc3cc4c(cc23)C(C)(C)CCC4(C)C)cn1 [Ir550],–,–,"EQE (%) 1000 cd/m^2 ([1]; device Type 2, at 1000 cd/m^2): 19.0%; Voltage (V) 1000 cd/m^2 ([1]; device Type 2, at 1000 cd/m^2): 3.9 V; LT50 (h) 1000 cd/m^2 [1, 4]: 170000 h"
CC1(C)CCC(C)(C)c2c[c]([Ir]([c]3cc4c(cc3-c3cc(-c5ccccc5)ccn3)C(C)(C)C(C)(C)C4(C)C)[c]3cc4c(cc3-c3nccc5cc6c(cc35)C(C)(C)CCC6(C)C)C(C)(C)CCC4(C)C)c(-c3nccc4cc5c(cc34)C(C)(C)CCC5(C)C)cc21 [Ir551],–,–,"EQE (%) 1000 cd/m^2 ([1]; device Type 2, at 1000 cd/m^2): 20.0%; Voltage (V) 1000 cd/m^2 ([1]; device Type 2, at 1000 cd/m^2): 3.8 V; LT50 (h) 1000 cd/m^2 [1, 4]: 200000 h"
CC1(C)CCC(C)(C)c2cc3cc(-c4cccc[c]4[Ir]([c]4cc5c(cc4-c4cc6cc7c(cc6cn4)C(C)(C)CCC7(C)C)C(C)(C)CC5(C)C)[c]4cc5c(cc4-c4cc6cc7c(cc6cn4)C(C)(C)CCC7(C)C)C(C)(C)CC5(C)C)ncc3cc21 [Ir555],–,–,"EQE (%) 1000 cd/m^2 ([1]; device Type 2, at 1000 cd/m^2): 20.5%; Voltage (V) 1000 cd/m^2 ([1]; device Type 2, at 1000 cd/m^2): 3.8 V"
CC(C)(C)c1cc2[n+](cn1)[Ir-3]13([c]4cc5c(cc4-2)C(C)(C)CCC5(C)C)([c]2cc4c(cc2-c2cc(C(C)(C)C)nc[n+]21)C(C)(C)CCC4(C)C)[c]1cc2c(cc1-c1cc(C(C)(C)C)nc[n+]13)C(C)(C)CCC2(C)C [Ir(LH11)3],22.1,4.3,–
Cc1cc2[n+](cc1-c1ccc3c(c1)C(C)(C)CCC3(C)C)[Ir-3]13([c]4cc5c(cc4-2)C(C)(C)CCC5(C)C)([c]2cc4c(cc2-c2cc(C)c(-c5ccc6c(c5)C(C)(C)CCC6(C)C)c[n+]21)C(C)(C)CCC4(C)C)[c]1cc2c(cc1-c1cc(C)c(-c4ccc5c(c4)C(C)(C)CCC5(C)C)c[n+]13)C(C)(C)CCC2(C)C [Ir(LH15)3],22.1,4.6,"LT50 (h) 1000 cd/m^2 [1, 3]: 200000 h"
Cc1cccc(C)c1-n1c2[n+](c3cc4c(cc31)C(C)(C)CCC4(C)C)[Ir-3]13([c]4ccccc4-2)([c]2ccccc2-c2n(-c4c(C)cccc4C)c4cc5c(cc4[n+]21)C(C)(C)CCC5(C)C)[c]1ccccc1-c1n(-c2c(C)cccc2C)c2cc4c(cc2[n+]13)C(C)(C)CCC4(C)C [Ir(LH20)3],19.3,4.6,–
CC(C)n1c2[n+](c3cc4c(cc31)C(C)(C)CCC4(C)C)[Ir-3]13([c]4ccccc4-2)([c]2ccccc2-c2n(C(C)C)c4cc5c(cc4[n+]21)C(C)(C)CCC5(C)C)[c]1ccccc1-c1n(C(C)C)c2cc4c(cc2[n+]13)C(C)(C)CCC4(C)C [Ir(LH21)3],19.1,4.7,–
CC1(C)CCC(C)(C)c2cc3c4[n+](ccc3cc21)[Ir-3]12([c]3cc(-c5ccccc5)ccc3-4)([c]3cc(-c4ccccc4)ccc3-c3c4cc5c(cc4cc[n+]31)C(C)(C)CCC5(C)C)[c]1cc(-c3ccccc3)ccc1-c1c3cc4c(cc3cc[n+]12)C(C)(C)CCC4(C)C [Ir(LH28)3],18.8,3.9,"LT50 (h) 1000 cd/m^2 [1, 3]: 150000 h"
CC(C)(C)c1c[c]2c(cn1)-c1c3cc4c(cc3cc[n+]1[Ir-3]213([c]2cc(C(C)(C)C)ncc2-c2c5cc6c(cc5cc[n+]21)C(C)(C)CCC6(C)C)[c]1cc(C(C)(C)C)ncc1-c1c2cc5c(cc2cc[n+]13)C(C)(C)CCC5(C)C)C(C)(C)CCC4(C)C [Ir(LH29)3],19.5,3.7,–
CC1(C)CCC(C)(C)c2c[c]3c(cc21)-c1c2cc4c(cc2cc[n+]1[Ir-3]312([c]3cc5c(cc3-c3c6cc7c(cc6cc[n+]31)C(C)(C)CCC7(C)C)C(C)(C)CCC5(C)C)[c]1cc3c(cc1-c1c5cc6c(cc5cc[n+]12)C(C)(C)CCC6(C)C)C(C)(C)CCC3(C)C)C(C)(C)CCC4(C)C [Ir(LH30)3],–,–,"EQE (%) 1000 cd/m^2 ([1]; device Type 2, at 1000 cd/m^2): 19.1%; Voltage (V) 1000 cd/m^2 ([1]; device Type 2, at 1000 cd/m^2): 3.7 V; LT50 (h) 1000 cd/m^2 [1, 4]: 180000 h"
CC1(C)CCC(C)(C)c2cc3c4[n+](ccc3cc21)[Ir-3]12([c]3cc5c(cc3-4)oc3ccccc35)([c]3cc4c(cc3-c3c5cc6c(cc5cc[n+]31)C(C)(C)CCC6(C)C)oc1ccccc14)[c]1cc3c(cc1-c1c4cc5c(cc4cc[n+]12)C(C)(C)CCC5(C)C)oc1ccccc13 [Ir(LH31)3],19.5,3.6,–
CC1(C)CCC(C)(C)c2cc3cc(-c4cc5c(c[c]4[Ir]([c]4cc6c(cc4-c4cc7cc8c(cc7cn4)C(C)(C)CCC8(C)C)C(C)(C)CC6(C)C)[c]4cc6c(cc4-c4cc7cc8c(cc7cn4)C(C)(C)CCC8(C)C)C(C)(C)CC6(C)C)C(C)(C)CC5(C)C)ncc3cc21 [Ir(LH34)3],19.9,3.7,–
CC1(C)CCC(C)(C)c2cc(-c3cc4oc5ccccc5c4c[c]3[Ir]([c]3cc4c(cc3-c3cc5c(cn3)C(C)(C)CCC5(C)C)oc3ccccc34)[c]3cc4c(cc3-c3cc5c(cn3)C(C)(C)CCC5(C)C)oc3ccccc34)ncc21 [Ir(LH37)3],21.1,4.6,"LT50 (h) 1000 cd/m^2 [1, 3]: 190000 h"
CC1(C)CCC(C)(C)c2cc(-c3ccc(-c4ccccc4)c[c]3[Ir]([c]3cc(-c4ccccc4)ccc3-c3cc4c(cn3)C(C)(C)CCC4(C)C)[c]3cc(-c4ccccc4)ccc3-c3cc4c(cn3)C(C)(C)CCC4(C)C)ncc21 [Ir(LH38)3],21.6,4.6,–
CC1(C)CCC(C)(C)c2cc(-c3cc4c(c[c]3[Ir]([c]3cc5oc6ccccc6c5cc3-c3cc5c(cn3)C(C)(C)CCC5(C)C)[c]3cc5oc6ccccc6c5cc3-c3cc5c(cn3)C(C)(C)CCC5(C)C)oc3ccccc34)ncc21 [Ir(LH39)3],21.3,4.6,–
CC1(C)CCC(C)(C)c2cc(-c3cc4c(c[c]3[Ir]([c]3cc5c(cc3-c3cc6c(cn3)C(C)(C)CCC6(C)C)C(C)(C)C(C)(C)C5(C)C)[c]3cc5c(cc3-c3cc6c(cn3)C(C)(C)CCC6(C)C)C(C)(C)C(C)(C)C5(C)C)C(C)(C)C(C)(C)C4(C)C)ncc21 [Ir(LH42)3],–,–,LT80 (h) 1000 cd/m^2 [2]: 24000 h; Voltage (V) 1000 cd/m^2 [2]: 3.3 V; EQE (%) 1000 cd/m^2 [2]: 24.3%
CC1C(C)C(C)(C)c2c[c]([Ir]([c]3cc4c(cc3-c3cc(-c5ccccc5)ccn3)C(C)(C)C(C)C(C)C4(C)C)[c]3cc4c(cc3-c3cc(-c5ccccc5)ccn3)C(C)(C)C(C)C(C)C4(C)C)c(-c3cc(-c4ccccc4)ccn3)cc2C1(C)C (stereo not shown) [Ir(LH53)3],21.0,4.3,"LT50 (h) 1000 cd/m^2 [1, 3]: 140000 h"
Cc1cnc(-c2[c-]cc3c(c2)C(C)(C)CCC3(C)C)cc1C.Cc1cnc(-c2[c-]cc3c(c2)C(C)(C)CCC3(C)C)cc1C.Cc1cnc(-c2[c-]cc3c(c2)C(C)(C)CCC3(C)C)cc1C.[Ir+3] [Ir(LH58)3],–,–,LT80 (h) 1000 cd/m^2 [2]: 23000 h; Voltage (V) 1000 cd/m^2 [2]: 3.2 V; EQE (%) 1000 cd/m^2 [2]: 23.0%
CC1(C)CCC(C)(C)c2cc(-c3nccc4ccccc34)[c-]cc21.CC1(C)CCC(C)(C)c2cc(-c3nccc4ccccc34)[c-]cc21.CC1(C)CCC(C)(C)c2cc(-c3nccc4ccccc34)[c-]cc21.[Ir+3] [Ir(LH61)3],–,–,LT80 (h) 1000 cd/m^2 [2]: 21000 h; Voltage (V) 1000 cd/m^2 [2]: 3.0 V; EQE (%) 1000 cd/m^2 [2]: 18.0%
